Measurements taken from US9474814B2, “Differential evaporation potentiated disinfectant system” (XY, LLC, priority 2007, dated 2016).
Some results were stated once for a whole list of compounds, not compound by compound.

Test system: Staphylococcus aureus (ATCC 6538), Pseudomonas aeruginosa (ATCC 9027), Salmonella Choleraesuis (ATCC 13312)
Assay: Coverslip assay: composition applied to dried bacteria on glass coverslips, evaporated to dryness, nutrient agar contact
Type: cell-based
Settings: concentrations at which the active evaporated from the mixture at a greater rate than the water
Procedure: These bacteria cultures can be diluted to obtain concentrations of about 10^7 through about 10^3 CFU/ml and 10 μl of each dilution can be spread onto a glass coverslip with a sterile loop and allowed to dry. Afterwards, the coverslips containing 10^5 to 10^2 CFU can be placed inside of petri dish. Different concentrations of the amount of substance can be applied to the cover slips with a nebulizer as described by Germicidal Spray Products as Disinfectants, Method 961.02, AOAC International (2004). As a non-limiting example, isopropyl alcohol (IPA) and diacetone alcohol (DAA) can be assessed as above described by obtaining aqueous mixtures of IPA at concentrations of 55% w/w, 20% w/w, and 5% w/w. […] A nutrient agar lightly pressed against the coverslips allows contact of microorganisms on the coverslips with the nutrient agar. The nutrient agar can be incubated for 48 hours at 37° C. in contact with the coverslips and then observed for microbial reproduction in the region where the coverslips contact the nutrient agar. Untreated coverslips can be used as a positive control. Particular examples of utilizing the method are set forth below.

`CC(=O)CC(C)(C)O` [DAA, 4-hydroxy-4-methyl-2-pentanone] was tested. Which “number of colonies relative to the corresponding positive control plate” value did it give?
Its value is “less than 50%”.
